Data on 1 compound can be found in patent US12161653B2, “Treatment of submental fat” (Allergan Sales, LLC, priority 2011, dated 2024).

In this data set the test system is submental fat (SMF). In words: Example 3 phase II placebo-controlled study (CR-SMFRS, PR-SMFRS, PR-SMFIS, MRI, other scales). It counts as in vivo, human. The method, then: A clinical study was conducted to evaluate the effectiveness of various doses of sodium deoxycholate in removing undesired submental fat (SMF) deposits. This clinical study was multicenter, randomized, double-blind, placebo-controlled study of sodium deoxycholate injection (“SDI” or alternatively “ATX-101”) versus placebo for the reduction of localized subcutaneous fat in the submental area (SMF) using magnetic resonance imaging (MRI) and a battery of clinician- and subject-reported measurements.
Study Design: FIG. 2 depicts the study Design and Treatment Schema associated with this procedure. […]
To measure changes in SMF volume and thickness, MRI acquisitions were repeated prior to each treatment session and post-treatment (4 and 12 weeks after the last treatment cycle). Before subjects completed each MRI visit, the MRI images were evaluated for acceptability. […]
Evaluation of Efficacy: The effects of 5 mg/mL SDI and 10 mg/mL SDI transcutaneous injections in the submental area were evaluated relative to placebo by measuring the following: (1) the reduction of fat using Clinician-Reported Submental Fat Rating Scale (CR-SMFRS), Patient-Reported Submental Fat Rating Scale (PR-SMFRS), and Patient-Reported Submental Fat Impact Scale (PR-SMFIS); (2) the volume of SMF using MRI; and (3) the thickness of SMF using MM. […]

For `C[C@H](CCC(=O)[O-])[C@H]1CC[C@H]2[C@@H]3CC[C@@H]4C[C@H](O)CC[C@]4(C)[C@H]3C[C@H](O)[C@]12C.[Na+]` [sodium deoxycholate], the body weight result (during the course of the treatments (FIG. 19)) is given as “did not undergo obvious changes”. Also, the “body mass index (BMI)” value (patients receiving the treatments (FIG. 17)) is “did not have marked changes”.
